PubChem BioAssay AID743121 – NCATS, 2013

Purpose: 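Partners whose loss is lethal together with topoisomerase I blockade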 (primary screen)
System: MDA-MB-231 cells, a human breast cancer line
Reagents: single siRNA against human genes, 20 nM siRNA (0.8 pmol per well)
Timing: 120 h (drug added 48 h after transfection, read 72 h later)
Conditions: camptothecin 20 nM (about EC30) for 72 h; vehicle 0.1% DMSO in parallel plates
Measurement: 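Cell viability by ATP luminescence (CellTiter-Glo) as % of non-targeting siRNA wells, and the log2 ratio of viability without drug over viability with camptothecin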
Direction: log2 vehicle/camptothecin viability: higher = stronger sensitisation to camptothecin
Call rule: 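Active genes have an RSA gene-level p-value below 0.001, computed from the ratios of their separate siRNAs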
The whole screen tested about 26,000 reagents; below is a random part of them. 167 of them (0.63%) were called active. 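Calls are per gene from RSA p-values that are not deposited; an individual active-marked siRNA can sensitise only weakly.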 Entries without a mark were called inactive. The numbers tell different reagents against one gene apart. Not all columns of the deposit are shown.

log2 vehicle/camptothecin viability, by gene knocked down and reagent
MAS1 (GeneID 4142): #1 -0.196; #2 -0.387; #3 -0.358; #4 -0.322
OR6W1P (GeneID 89883): #1 0.132; #2 -0.265; #3 -0.338; #4 -0.234
MTA2 (GeneID 9219): #1 0.204; #2 0.561; #3 0.441; #4 -0.168
ADORA3 (GeneID 140): #1 -0.343; #2 -0.13; #3 0.155; #4 -0.175; #5 1.19; #6 -0.848; #7 -0.0756; #8 -0.118
KCNJ11 (GeneID 3767): #1 0.0611; #2 -0.406; #3 -0.47; #4 0.301
ANK2 (GeneID 287): #1 -0.236; #2 -0.139; #3 -0.21

Single entries from above.
For “log2 vehicle/camptothecin viability”, ADORA3 (GeneID 140) #6 reads -0.848
KCNJ11 (GeneID 3767) #1, log2 vehicle/camptothecin viability → 0.0611
OR6W1P (GeneID 89883) #1, log2 vehicle/camptothecin viability → 0.132
Under “log2 vehicle/camptothecin viability”, MTA2 (GeneID 9219) #3 shows 0.441

Additional records:
log2 vehicle/camptothecin viability, by gene knocked down and reagent
SNX4 (GeneID 8723): #1 0.00461; #2 0.296; #3 -0.558; #4 -0.069
ILF3 (GeneID 3609): #1 -0.191; #2 -0.259; #3 0.0005; #4 0.107
TAT (GeneID 6898): #1 -0.204; #2 -0.458; #3 -0.2; #4 -0.324
LAMC2 (GeneID 3918): #1 -0.314; #2 -0.119; #3 -0.0986
MAP3K2 (GeneID 10746): #1 -0.249; #2 -0.45; #3 -0.217; #4 -0.0951
